Laboratory results reported in PubChem BioAssay AID1439 (NMMLSC, 2008).
The campaign covered roughly 220,000 compounds. About 770 (0.35%) were called active. Inconclusive means that the source gave no clear call. Such entries were picked first, then a sample of the others. Rule as the data show it: active = binding response below about 49% or above about 150%; inconclusive = no clear call, values can overlap the other calls; inactive = in between.

Amino acid sequences for entries named in this document (tags omitted).
UniProt P09471, whole entry, looked up: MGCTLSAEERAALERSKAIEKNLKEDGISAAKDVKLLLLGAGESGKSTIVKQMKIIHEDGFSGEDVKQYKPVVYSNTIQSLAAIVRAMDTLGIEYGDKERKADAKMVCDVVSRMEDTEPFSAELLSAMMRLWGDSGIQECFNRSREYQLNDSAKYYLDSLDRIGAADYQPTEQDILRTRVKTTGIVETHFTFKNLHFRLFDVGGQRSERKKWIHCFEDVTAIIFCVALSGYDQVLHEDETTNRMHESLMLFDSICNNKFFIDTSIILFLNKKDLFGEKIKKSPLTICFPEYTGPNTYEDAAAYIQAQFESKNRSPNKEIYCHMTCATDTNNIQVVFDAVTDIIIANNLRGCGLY

Biological target: Guanine nucleotide-binding protein G(o) subunit alpha (Homo sapiens) (UniProt P09471)
Assay: RGS7-Galphao binding modulators, primary screen, biochemical, multiplexed bead flow cytometry (AID 1439);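 also: fluorescent Galphao held in activated GDP-AlF4 state binding bead-coupled RGS7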
Conditions: at 10 µM, actives lie on both sides

Row | SMILES | binding response (% of control)
1 | CCCCCCCc1nc2nc(C)c(Br)c(=O)n2[nH]1 | inconclusive: 70.8%
2 | Cc1nc(C(=O)NC2CC2)sc1C1(C)CC(c2ccccc2)=NO1 (stereo unspecified) | inconclusive: 115%
3 | Cc1cc(=O)[nH]c2c1c(C)nn2C(C)(C)C | inconclusive: 21.3%
4 | Cc1ccc(OCC(=O)c2cc(C)n(Cc3ccco3)c2C)c([N+](=O)[O-])n1 | inconclusive: 70.3%
5 | O=S(=O)(c1ccc(Cl)cc1Br)N1CCCCC1 | inactive: 87.7%
6 | N#CCCn1cc(C(=O)N2CCCCC2)c(-c2ccc([N+](=O)[O-])cc2)n1 | inconclusive: 88.4%
7 | O=C(COC(=O)Cc1n[nH]c(=O)c2ccccc12)Nc1ccc(Cl)cc1F | inconclusive: 91.9%
8 | O=C(C[n+]1cc(-c2ccc(Cl)cc2)n2c1CCC2)Nc1nc(-c2ccccc2)cs1 | inconclusive: 32.5%
9 | COc1cccc(NC(=O)c2c(C)cc(C)cc2CC(C)(C)C(=O)O)c1 | inconclusive: 111%
10 | Nc1nccc(-c2cc(-c3ccc(Cl)cc3Cl)no2)n1 | inconclusive: 85.2%
11 | Cc1c(C)[n+](=O)c2c(n1[O-])C(Br)CCC2Br (stereo unspecified) | inconclusive: 116%
12 | N#Cc1cc[n+](CC(=O)c2ccc(NC(=O)c3ccccc3)cc2)cc1 | inconclusive: 740%
13 | Cc1cccc(Nc2c([N+](=O)[O-])cc(C(=O)N3CC(=O)Nc4ccccc43)cc2[N+](=O)[O-])c1 | inconclusive: 96.4%
14 | CC(C)C(=O)NNC(=O)c1cc2sccc2s1 | inconclusive: 76.6%
15 | C[C@@H](C(=O)N1CCN(C(=O)OC(C)(C)C)CC1)n1cc(-c2cn([C@@H](C)C(=O)N3CCN(C(=O)OC(C)(C)C)CC3)nn2)nn1 | inconclusive: 112%
16 | COc1cc(Cl)c(C)cc1NC(=O)CNC(C)c1ccccc1OC (stereo unspecified) | inactive: 89.6%
17 | CCC(=O)Nc1cccc(C2=NOC3(C2)C[C@H](C(N)=O)N(C(=O)CC#N)C3)c1 (stereo partly specified) | inconclusive: 113%
18 | COc1ccc(Cc2c(O)nc(SCC(=O)c3ccc(OC)cc3)[nH]c2=O)cc1 | inconclusive: 93.2%
19 | CCOC(=O)CNC(=O)N1CCCC(CCC(=O)NCc2ccc(F)c(F)c2)C1 (stereo unspecified) | inactive: 103%

Row | SMILES | binding response (% of control)
20 | CC(=O)c1ccc(NC(=O)Cn2c3ccccc3c3nc(=O)cc(C)n32)cc1 | inconclusive: 104%
21 | O=C1/C(=C/C=C/c2ccco2)SC(=S)N1c1ccc(O)cc1 | inconclusive: 123%
22 | O=C(CCn1cccc1)Nc1ccc(OC(F)(F)F)cc1 | inactive: 96%
23 | O=C(CCS(=O)(=O)c1cc(Br)cc2c1N(C(=O)C1CC1)CC2)N1CCN(c2ccccn2)CC1 | inconclusive: 99.3%
24 | Cn1ncc([N+](=O)[O-])c1C(=O)NCc1ccccc1 | inconclusive: 105%
25 | S=C(NCc1ccccc1)NCc1ccccn1 | inconclusive: 101%
26 | Cn1ccsc1=NC(=O)c1ccc(Cl)cc1 | inconclusive: 96.9%
27 | c1ccc(-c2ccc(CN3C[C@@H]4C(c5ccccc5)C5(c6cccnc6)CC4(C5)[C@H]3c3ccccc3)cc2)cc1 (stereo partly specified) | inconclusive: 99.6%
28 | CCOC(=O)c1ccc[n+](CC(=O)c2ccc(OC)cc2)c1 | inactive: 105%
29 | Cc1noc(C)c1C(=O)N1CCC2(CC1)Oc1ccc(F)cc1C(=O)C21CC(c2ccc(Cl)cc2)=NO1 (stereo unspecified) | inconclusive: 130%
30 | COc1ccc(CNC(=O)C2CCC(CNc3c(N4CCCCC4)c(=O)c3=O)CC2)cc1 (stereo unspecified) | inconclusive: -674%
31 | CCOCC(=O)N1CCN(c2ccc([N+](=O)[O-])cc2)CC1 | inactive: 96.2%
32 | Cc1ccc(NC(=O)NC(=O)CSc2n[nH]c(N)n2)c(C)c1 | inconclusive: 98.1%
33 | CCCCc1nnc(NC(=O)C(C)Sc2nc(O)c(Cc3ccccc3)c(=O)[nH]2)s1 (stereo unspecified) | inactive: 97.4%
34 | COc1ccccc1N1CN(CCc2ccccc2)CNC1=S | inconclusive: 98.4%
35 | OC1COC(OCc2ccccc2)C(O)C1O (stereo unspecified) | inconclusive: 109%
36 | Cc1cc2nc3c(nc2cc1C)C(O)=C3O | inconclusive: 108%
37 | Cn1c(-c2ccc(F)cc2)cnc1NCc1cc2c(cc1[N+](=O)[O-])OCO2 | inactive: 104%
38 | Cn1c(=O)[nH]c(=O)c2c1nc(N1CCCCC1)n2C/C=N/NC(=O)c1cc(Br)ccc1O | inconclusive: 49.8%

Copied from the list:
For binding response (% of control), `Cc1noc(C)c1C(=O)N1CCC2(CC1)Oc1ccc(F)cc1C(=O)C21CC(c2ccc(Cl)cc2)=NO1` (stereo unspecified) has inconclusive: 130%
For binding response (% of control), `Cc1cc2nc3c(nc2cc1C)C(O)=C3O` has inconclusive: 108%

Next part

Row | SMILES | binding response (% of control)
39 | NNC(=S)Nc1ccc(S(=O)(=O)N2CCOCC2)cc1 | inconclusive: 98.9%
40 | Cc1ccc(SC(=O)c2c([N+](=O)[O-])c(C)nn2C)cc1 | inconclusive: 48.5%
41 | O=C(Nc1ccc(S(=O)(=O)Nc2ncccn2)cc1)c1cccc(S(=O)(=O)N2CCCC2)c1 | inconclusive: 106%
42 | S=C(Nc1ccccn1)NC1CCCCC1 | inconclusive: 112%
43 | Cc1ccc(-c2nn(C)c(=O)c3ccccc23)cc1CN1CCCCC1 | inconclusive: 126%
44 | Cc1cc(=O)oc2cc(OCCSCCN3CCCCC3)ccc12 | inconclusive: 114%
45 | O=C(Cn1cnc2ccccc21)N/N=C/C(Br)=C/c1ccccc1 | inactive: 97.4%
46 | CC(=O)Nc1nonc1-c1nc2ccccc2n1CCC#N | inactive: 96.7%
47 | COc1ccc(NC(=O)CSc2cc(C)nc3c(-c4ccccc4)cnn23)cc1 | inconclusive: -115%
48 | COCC(=O)OCC(=O)Nc1ccc(Cl)cc1[N+](=O)[O-] | inconclusive: 108%
49 | COC(=O)c1sc(NC(=O)/C=C/c2ccccc2Cl)nc1C | inactive: 95%
50 | C/C(=C\c1ccccc1)C(=O)NCc1ccco1 | inactive: 102%
51 | Cc1nc(S(=O)(=O)Nc2ccccc2C(=O)NCC2CC2)cn1C | inconclusive: 78.8%
52 | O=[N+]([O-])c1ccc2c(c1)nc1n2CCCCC1 | inconclusive: 102%
53 | COc1ccc(N2C(=O)CC(Sc3n[nH]c(-c4ccccc4)n3)C2=O)cc1 (stereo unspecified) | inconclusive: 110%
54 | Cc1nn(C)cc1C(C(=O)NC1CCCCC1)N(Cc1ccccc1Cl)C(=O)c1cnccn1 (stereo unspecified) | inactive: 92%
55 | O=C1N=c2ccccc2=C1c1sc(=S)n(Cc2ccccc2Cl)c1O | inconclusive: 267%
56 | CC(C)(CO)NS(=O)(=O)c1ccc2c(c1)C(=O)c1cc(S(=O)(=O)NC(C)(C)CO)ccc1-2 | inconclusive: 78.9%
